Data taken from paper PMC8640933.
Results are given in words; binding and its absence hold for the method and conditions named. In cells and extracts the contact can be indirect. Some entries that bind do so weakly or less than the wild type. Where a sequence is shown, tags or fusion partners need not be part of it.

Molecular target: T1, CENP-T^Cnp20-TAP (Schizosaccharomyces pombe) (UniProt Q9HGK9)
T1 sequence: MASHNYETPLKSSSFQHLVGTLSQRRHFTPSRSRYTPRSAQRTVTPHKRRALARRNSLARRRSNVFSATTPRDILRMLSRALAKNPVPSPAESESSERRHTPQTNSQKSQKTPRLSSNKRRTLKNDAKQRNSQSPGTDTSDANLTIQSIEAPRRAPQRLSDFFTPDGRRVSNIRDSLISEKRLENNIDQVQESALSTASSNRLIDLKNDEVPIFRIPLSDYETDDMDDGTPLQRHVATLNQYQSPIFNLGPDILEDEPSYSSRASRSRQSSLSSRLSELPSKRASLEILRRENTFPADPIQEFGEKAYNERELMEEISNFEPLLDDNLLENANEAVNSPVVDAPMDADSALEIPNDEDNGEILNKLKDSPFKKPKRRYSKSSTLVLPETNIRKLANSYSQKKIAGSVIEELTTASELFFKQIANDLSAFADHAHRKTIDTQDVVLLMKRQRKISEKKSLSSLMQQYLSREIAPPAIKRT
Experiment: co-IP; lysates of S. pombe cells expressing Ndc80-GFP and TAP-tagged Cnp20 or its CIM mutants, synchronized at metaphase (nda3-KM311) / in mitosis or unsynchronized (predominantly G2), immunoprecipitated with an antibody specific for TAP, Western blot with a GFP antibody; conditions of SI Fig. S18 not shown

B1: Ndc80-GFP (protein, UniProt Q10198 1-624)
chain: MQDSSSYARRYSQAPSSSNLRTTTFGFNGLGTSRTSLAPQRTLVNARQSIDPDGLSSRVLTPTMRPSLAPNTRRSSVRVSNASFISQTPNITSIKDPRPLSDRRYQQECATQVVNYLLESGFSQPLGLNNRFMPSTREFAAIFKHLYNKLDPNFRFGARYEEDVTTCLKALNYPFLDSISRSRLVAIGSPHVWPAILGMLHWVVSLIQCTEKAVAMVYTVEQNSLDDHLVDKVLFDYLVRTYHLYLDESPEESEPEKELKATFNQQNQDLYNQTEALKSTNEELINQIKSAEELDSAIQVLEERYRTMQRDEVKFQSAMSGMKSKMESRTNLMKQLQVNIEEKESQLQLLKEKRDSLKYQVENQDISISEFEKMVSEREQLDRNLNMIGSKISELRKEVFDTDLLIQASIDSLEKKVQKFNSLAYRIGIVPIAAIRSANNDFELEINPEGPNYINLDLKNKVRPFINEVRRSITLEFHEEQNKSLKLQEHVDTVNDLIAELQDELRGIESRLTSVLSECNMLRETASEEKNAFDAESDKLERELQQLKLSSHNSMLQLDQRIQSINIEADQIAHACMEYKNNIYKEVAFVLGEIIHFKLHVQDSLEDLKMDYQKELDDLSRSEL
  binding: binds
